# PubChem BioAssay AID1259308 | NCATS – 2017
# Purpose: 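Candidate targets for better recombinant protein yield in mammalian cells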 (primary screen)
# Cell system: human HEK293 embryonic kidney cells stably expressing firefly luciferase (HEK-CMV-Luc2-Hygro)
# Reagent: single siRNA against human genes, 0.8 pmol siRNA per well
# Time to read-out: 72 h
# Read-out: 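Reporter luminescence and viable-cell signal on separate replicate plates, given as percent of non-targeting control and median/MAD z-scores, plus per-cell luciferase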
# Reading the numbers: total luciferase, z-score and total luciferase, % of control: higher = more reporter protein produced; luciferase per cell, z-score: higher = more reporter output per viable cell; viable cells, % of control: higher = more viable cells
# Rule for the call: 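Active when the median/MAD z-score for overall luciferase is greater than 3; a gene was taken forward for validation with new siRNAs if at least two of its three siRNAs passed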
# Meaning of the calls: active = raised luciferase; inactive = no rise
# In all, the deposit lists about 59,000 reagents; shown is a random part of them. About 1,510 of them (2.6%) were called active. 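Calls use total luciferase alone and ignore viability, so some active siRNAs may act by altering cell number.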 Unmarked entries are inactive. The numbers tell different reagents against one gene apart.
Target gene,siRNA no.,"total luciferase, z-score","total luciferase, % of control","luciferase per cell, z-score","viable cells, % of control"
KISS1,1,-1.35,55.1,-0.889,77.8
KISS1,2,0.0849,83.6,0.617,79.4
KISS1,3,-2.39,34.4,-2.41,72.5
CERS4,1,0.481,91.5,0.646,86.2
CERS4,2,-0.245,77,-0.599,101
CERS4,3,-0.624,69.5,-0.318,84.4
GTF2IP20,1,-0.102,79.9,-0.694,107
GTF2IP20,2,0.279,87.4,-0.329,107
GTF2IP20,3,1.04,103,0.392,103
SCML4,1,1.03,102,0.873,90.9
SCML4,2,-1.63,49.5,-1.27,77.3
SCML4,3,3.02 (active),142,1.76,99.8
OR10H3,1,0.533,92.5,0.686,86.3
OR10H3,2,-0.193,78,-0.502,99.5
OR10H3,3,-0.754,66.9,-0.0314,75.4
PLA2G5,1,0.758,97,0.745,89
PLA2G5,2,3.07 (active),143,1.6,105
PLA2G5,3,-1.43,53.5,-2.18,106
DGKD,1,1.86,119,1.03,101
DGKD,2,0.227,86.4,0.0476,95.3
DGKD,3,2.77,137,1.71,97.4
WASF3,1,0.907,99.9,0.769,91.2
WASF3,2,0.995,102,1.19,83
WASF3,3,0.882,99.4,1.13,82.6

Taken from above.
SCML4 #1, total luciferase, z-score: 1.03
Result of WASF3 #1 in “total luciferase, % of control”: 99.9
